Results published in ChEMBL document CHEMBL6103588, “Promising thiazolidinedione-thiazole based multi-target and neuroprotective hybrids for Alzheimer's disease: Design, synthesis, in-vitro, in-vivo and in-silico studies” (Eur J Med Chem, 2025).

Assay: in vitro
Settings: PAMPA, pH 7.4

COc1cc2c(cc1OC)C(=O)C(CC1CCN(Cc3ccccc3)CC1)C2 (stereo unspecified) [DONEPEZIL]
Papp at 20 h: 16.7 ×10⁻⁶ cm/s
